Assay results taken from PubChem BioAssay AID190 (DTP/NCI, 2004).
The list shows only some results of the screen, not a fair sample: it is rich in T/C values a quarter to a half above the control, in often repeated tests (any T/C) and in doses without a T/C. Other doses and runs of a compound stand elsewhere. T/C: endpoint of the treated group in % of that of the vehicle group. Some doses have a count of surviving animals in place of a T/C: the source holds a T/C of zero for them, seemingly a mark for toxic or unscored doses. Some survivor counts are full or nearly so, which does not show that the dose was tolerated: the source hardly ever lists a survival T/C far under the control, and the zero likely stands for such cases as well. Survivors were counted at the toxicity check, usually on the fifth day, unless a day is given; later deaths do not show. Schedules are NCI's codes, taken here to give the interval after Q, in days (D) or hours (H), and the number of doses after X. Counts like (3×) say how often a value occurs here. Some entries hold several experiments; the results are listed from low to high. For survival time, the PubChem record calls one and a half times the control and up active, and a quarter to a half above the control has no call in these data; cut-offs in other NCI protocols can differ. Some T/C values are followed by the survivors on the day toxicity was checked, most often the fifth; where none is given, no animal had died by that day.

Test system: AKR/Lw mice, AKR lymphoma ip, median survival T/C
Assay: NCI In Vivo Anticancer Drug Screen. Data for tumor model Lymphoma AKR (Transplanted) (intraperitoneal) in AKR/Lw mice
Conditions: T/C endpoint: median survival time, higher T/C = longer survival
Experimental: The antitumor activity of compounds was measured in mice bearing transplantable tumors. Survival or tumor size were measured and the results are expressed as the measurement made in the treated group (T) divided by the measurement made in the vehicle treated control group (C). The tumor model used in this assay is Lymphoma AKR (Transplanted) (intraperitoneal) in AKR/Lw mice

[1] = dose: 0.5 mg/kg/injection, schedule: Q01DX009 (ip), vehicle: saline
[2] = dose: 1.5 mg/kg/injection, schedule: Q04DX003 (ip), vehicle: saline
[3] = dose: 2.0 mg/kg/injection, schedule: Q01DX009 (ip), vehicle: saline
[4] = dose: 3.0 mg/kg/injection, schedule: Q04DX003 (ip), vehicle: saline
[5] = dose: 4.0 mg/kg/injection, schedule: Q01DX009 (ip), vehicle: saline
[6] = dose: 10.0 mg/kg/injection, schedule: Q01DX001 (ip), vehicle: saline
[7] = dose: 20.0 mg/kg/injection, schedule: Q01DX001 (ip), vehicle: saline
[8] = dose: 24.0 mg/kg/injection, schedule: Q04DX003 (ip), vehicle: water
[9] = dose: 25.0 mg/kg/injection, schedule: Q01DX001 (ip), vehicle: saline
[10] = dose: 40.0 mg/kg/injection, schedule: Q01DX001 (ip), vehicle: saline

Nc1ncn(C2OC(CO)C(O)C2O)c(=O)n1 (stereo unspecified)
T/C (dose: 0.03 mg/kg/injection, schedule: Q04DX008 (ip), vehicle: saline): 130 % of control | T/C (dose: 0.06 mg/kg/injection, schedule: Q01DX009 (ip), vehicle: saline): 128 % of control | T/C (dose: 0.12 mg/kg/injection, schedule: Q01DX009 (ip), vehicle: saline): 91 [7 of 10 alive], 108, 115, 142 % of control [9 of 10 alive] | T/C (dose: 0.12 mg/kg/injection, schedule: Q04DX008 (ip), vehicle: saline): 125 % of control | survivor count (dose: 0.18 mg/kg/injection, schedule: Q04DX003 (ip), vehicle: saline): 10 of 10 | T/C (dose: 0.25 mg/kg/injection, schedule: Q01DX009 (ip), vehicle: saline): 94, 97, 110, 117 (2×), 119, 125 % of control [9 of 10 alive] | T/C (dose: 0.25 mg/kg/injection, schedule: Q04DX008 (ip), vehicle: saline): 138 % of control | T/C (dose: 0.37 mg/kg/injection, schedule: Q01DX009 (ip), vehicle: water): 133 % of control | T/C (dose: 0.37 mg/kg/injection, schedule: Q04DX003 (ip), vehicle: saline): 128 % of control | T/C [1]: 94, 96, 103, 108 [8 of 10 alive], 115 [8 of 10 alive], 132 [9 of 10 alive], 139, 157 % of control | survivor count [1]: 5 of 10 and 10 of 10 | T/C (dose: 0.5 mg/kg/injection, schedule: Q04DX004 (ip), vehicle: saline): 128 % of control | survivor count (dose: 0.75 mg/kg/injection, schedule: Q01DX009 (ip), vehicle: water): 10 of 10 | T/C (dose: 0.75 mg/kg/injection, schedule: Q04DX003 (ip), vehicle: saline): 93, 130, 136, 141 % of control | T/C (dose: 1.0 mg/kg/injection, schedule: Q01DX009 (ip), vehicle: saline, evaluated on day 45): 129 % of control | T/C (dose: 1.0 mg/kg/injection, schedule: Q01DX009 (ip), vehicle: saline, evaluated on day 60): 105, 116 [9 of 10 alive], 117, 130, 131, 138 [9 of 10 alive], 200, 228 % of control [9 of 10 alive] | survivor count (dose: 1.0 mg/kg/injection, schedule: Q01DX009 (ip), vehicle: saline): 8 of 10 and 9 of 10 | T/C (dose: 1.0 mg/kg/injection, schedule: Q04DX004 (ip), vehicle: saline): 137 % of control | T/C (dose: 1.0 mg/kg/injection, schedule: Q04DX008 (ip), vehicle: saline): 130 % of control [9 of 10 alive] | survivor count (dose: 1.5 mg/kg/injection, schedule: Q01DX009 (ip), vehicle: saline): 9 of 10 | survivor count (dose: 1.5 mg/kg/injection, schedule: Q01DX009 (ip), vehicle: water): 10 of 10 | T/C [2]: 94, 96, 97, 111, 141 % of control | survivor count [2]: 6 of 10 and 8 of 10 | T/C [3]: 91, 100, 110, 123, 130 [9 of 10 alive], 314 % of control | survivor count [3]: 10 of 10 (2×) | T/C (dose: 2.0 mg/kg/injection, schedule: Q04DX004 (ip), vehicle: saline): 126 % of control | T/C (dose: 2.0 mg/kg/injection, schedule: Q04DX008 (ip), vehicle: saline): 147 % of control | survivor count (dose: 3.0 mg/kg/injection, schedule: Q01DX009 (ip), vehicle: saline): 10 of 10 | survivor count (dose: 3.0 mg/kg/injection, schedule: Q01DX009 (ip), vehicle: water): 10 of 10 | T/C [4]: 97 [9 of 10 alive], 103, 108 [9 of 10 alive], 121, 125, 135 % of control | survivor count [4]: 6 of 10 and 10 of 10 | T/C (dose: 3.0 mg/kg/injection, schedule: Q04DX008 (ip), vehicle: saline): 147 % of control | T/C [5]: 123 % of control | survivor count [5]: 7 of 10, 8 of 10, 9 of 10, 10 of 10 | T/C (dose: 5.0 mg/kg/injection, schedule: Q01DX001 (ip), vehicle: saline): 93, 97 [8 of 10 alive], 104, 115, 138 % of control | T/C (dose: 6.0 mg/kg/injection, schedule: Q04DX003 (ip), vehicle: saline, evaluated on day 45): 102, 125, 137 [9 of 10 alive], 171 % of control | T/C (dose: 6.0 mg/kg/injection, schedule: Q04DX003 (ip), vehicle: saline, evaluated on day 60): 102 [8 of 10 alive], 125 [9 of 10 alive], 130, 140, 144 [9 of 10 alive], 147 % of control | survivor count (dose: 6.0 mg/kg/injection, schedule: Q04DX003 (ip), vehicle: saline): 10 of 10 | survivor count (dose: 8.0 mg/kg/injection, schedule: Q01DX009 (ip), vehicle: saline): 10 of 10 (2×) | T/C [6]: 103, 125, 128, 130, 141 % of control | survivor count [6]: 9 of 10 | survivor count (dose: 10.0 mg/kg/injection, schedule: Q04DX004 (ip), vehicle: saline): 10 of 10 | survivor count (dose: 12.0 mg/kg/injection, schedule: Q01DX009 (ip), vehicle: water): 10 of 10 | T/C (dose: 12.0 mg/kg/injection, schedule: Q04DX003 (ip), vehicle: saline, evaluated on day 45): 128, 150, 195 % of control | T/C (dose: 12.0 mg/kg/injection, schedule: Q04DX003 (ip), vehicle: saline, evaluated on day 60): 94, 109, 122, 162 % of control [9 of 10 alive] | survivor count (dose: 12.0 mg/kg/injection, schedule: Q04DX003 (ip), vehicle: saline): 6 of 10, 8 of 10, 10 of 10 (2×) | T/C (dose: 12.0 mg/kg/injection, schedule: Q04DX003 (ip), vehicle: water): 127 % of control | T/C (dose: 12.5 mg/kg/injection, schedule: Q01DX001 (ip), vehicle: saline): 131 % of control | T/C (dose: 15.0 mg/kg/injection, schedule: Q01DX001 (ip), vehicle: saline): 100, 140, 145, 158 % of control | survivor count (dose: 15.0 mg/kg/injection, schedule: Q04DX004 (ip), vehicle: saline): 9 of 10 | survivor count (dose: 15.0 mg/kg/injection, schedule: Q04DX008 (ip), vehicle: saline): 10 of 10 | T/C [7]: 115 [8 of 10 alive], 125, 135 % of control | survivor count [7]: 7 of 10 | T/C (dose: 24.0 mg/kg/injection, schedule: Q01DX001 (ip), vehicle: saline): 131 % of control | T/C (dose: 24.0 mg/kg/injection, schedule: Q04DX003 (ip), vehicle: saline, evaluated on day 45): 128 % of control | T/C (dose: 24.0 mg/kg/injection, schedule: Q04DX003 (ip), vehicle: saline, evaluated on day 60): 91 % of control | survivor count (dose: 24.0 mg/kg/injection, schedule: Q04DX003 (ip), vehicle: saline): 9 of 10 and 10 of 10 (2×) | T/C [8]: 143 % of control | survivor count [8]: 10 of 10 | T/C [9]: 101, 105 [9 of 10 alive], 128, 133, 156 % of control | survivor count [9]: 6 of 10 | T/C (dose: 30.0 mg/kg/injection, schedule: Q01DX001 (ip), vehicle: saline): 135 % of control [8 of 10 alive] | survivor count (dose: 35.0 mg/kg/injection, schedule: Q01DX001 (ip), vehicle: saline): 8 of 10 | T/C [10]: 141 % of control [9 of 10 alive] | survivor count [10]: 1 of 10 | survivor count (dose: 45.0 mg/kg/injection, schedule: Q01DX001 (ip), vehicle: saline): 6 of 10 | survivor count (dose: 48.0 mg/kg/injection, schedule: Q04DX003 (ip), vehicle: water): 6 of 6 | survivor count (dose: 50.0 mg/kg/injection, schedule: Q01DX001 (ip), vehicle: saline): 2 of 10, 4 of 10, 6 of 10, 9 of 10 | survivor count (dose: 100.0 mg/kg/injection, schedule: Q01DX001 (ip), vehicle: saline): 1 of 10 | T/C (dose: 120.0 micrograms/kg/injection, schedule: Q01DX009 (ip), vehicle: saline): 130 % of control

COc1ccc(S(=O)O)cc1NC(C)=O
survivor count (dose: 400.0 mg/kg/injection, schedule: Q01DX001 (ip), vehicle: saline): 9 of 10
